Measurements from patent US20090269281A1, “Calcium/Calmodulin-Dependent Protein Kinase Kinase as a Control Point for Cardiac Hypertrophy” (University of North Texas Health Science Center at Fort …, priority 2007, published 2009).
At least one structure is not confirmed: it was looked up by name or label, or the drawing left a doubt.

What was measured:
Format in all cases: cell-based, rat
PKD = assay: Western blot of PKD phosphorylation (phospho-Ser744/748) in cardiomyocytes; details: AdUIIR-infected cardiomyocytes; UII up to 60 min
Method: (§1) Cell Culture and Treatments. […] Plasmids and Adenoviral Constructs.
(§2) Western Blot Analysis and Immunoprecipitations. Cardiomyocytes were cultured in 100-mm dishes as described in the previous section. 24 h post-plating, cells were treated with UII and various pharmacological inhibitors as indicated. Following treatment, cells were lysed, and the relative abundance of UIIR, active p38 and ERK1/2, and active PKD was determined with commercially-available antibodies (Alpha Diagnostic, and Cell Signaling Technologies, Inc., respectively). The antibody for CaMKI was obtained from T. Soderling (Vollum Institute, Oregon Health Sciences University, Portland Oreg.).
UII activates PKD in a CaMKK dependent manner. A parallel pathway involving PKD phosphorylatea HDACs resulting in their 14-3-3-dependent translocation […] (19). […] Next, it was determined whether UII stimulation could activate PKD which would account for the UII-induced HDAC5 translocation […] possibly working in conjunction with CaMKI. To determine whether UII activates PKD, AdUIIR-infected cardiomyocyte cultures were treated with UII for various times up to 60 min, and whole cell lysates were collected and the phosphorylation status of PKD was measured by Western blot analysis by using an antibody that recognizes the active form of PKD (phospho-Ser744/748). […]

CaMKI = assay: Western blot of CaMKI phosphorylation (phospho-Thr178) in cardiomyocytes; details: AdUIIR-infected cardiomyocytes; UII up to 60 min
Method: as §1, §2
UII stimulation results in the activation of CaMKI. […] One of the major downstream effectors of CaMKK is CaMKI. In addition to calcium/calmodulin, CaMKI requires phosphorylation by CaMKK to be active. To determine whether UII activates CaMKI, AdUIIR-infected cardiomyocyte cultures were treated with UII for various times up to 60 min, and whole cell lysates were collected and the phosphorylation status of CaMKI was measured by Western blot analysis by using an antibody that recognizes the active form of CaMKI (phospho-Thr178). […] CaMKI remained phosphorylated and active through 60 min of UII stimulation. Thus, UII activates CaMKI in cardiomyocytes.

[1] = tested on: ANF, BNP, αMHC and SkA mRNA; assay: Semi-quantitative RT-PCR of hypertrophy marker genes in cardiomyocytes; details: AdUIIR-infected cardiomyocytes; UII for 48 h
Method: as §1
Reverse Transcription and Semi-quantitative PCR—Cardiomyocytes were cultured in 100-mm dishes at a density of 1×10^5 cells/cm^2. 24 h post-plating, cells were treated as indicated. Following treatment, total RNA was isolated with TRIzol® reagent (Invitrogen) cDNA was synthesized using Super-Script™III (Invitrogen) per the manufacturer's instructions. Semi-quantitative PCR was then performed using gene-specific primers for UIIR, hypertrophy marker genes and glyceraldehyde-3-phosphate dehydrogenase (GAPDH) (Integrated DNA Technologies). Sequences of gene-specific primers were as follows: for UIIR, sense 5′-[…]-3′ (SEQ ID NO: 1) and antisense 5′-[…]-3′ (SEQ ID NO: 2); for ANF, sense 5′-[…]-3′ (SEQ ID NO: 3) and antisense 5′-[…]-3′ (SEQ ID NO: 4); for BNP sense, 5′-[…]-3′ (SEQ ID NO: 5) and anti-sense 5′-[…]-3′ (SEQ ID NO: 6); for αMHC sense, 5′-[…]-3′ (SEQ ID NO: 7) and antisense 5′-[…]-3′ (SEQ ID NO: 8); for SkA sense, 5′-[…]-3′ (SEQ ID NO: 9) and antisense 5′-[…]-3′ (SEQ ID NO: 10); and for GAPDH sense, 5′-[…]-3′ (SEQ ID NO: 11) and antisense 5′-[…]-3′ (SEQ ID NO: 12).

[2] = tested on: HDAC5/14-3-3β association; assay: Immunoprecipitation of 14-3-3β and detection of bound HDAC5 in cardiomyocytes; details: AdUIIR-infected cardiomyocytes; UII up to 60 min
Method: as §1
For immunoprecipitation studies, Cardiomyocytes were cultured in 100-mm as described in the previous section. 24 h post-plating, cells were treated with UII and various pharmacological inhibitors as indictated. Following treatment, 14-3-3β was immunoprecipitated from whole cell lysate using a commercially available antibody (Abcam) and a protein G immunoprecipitation kit (IP50 Kit, Sigma, following manufacturer's protocol). HDAC5 was detected using a commercially-available antibody (Cell Signaling Technologies, Inc.).
UII stimulation induces association of HDAC5 with 14-3-3β in a CaMKK dependent manner. The activity of MEF2 is controlled, in part, by its association with class II HDACs in the nucleus. Class II HDACs repress the activity of MEF2-sensitive promoters by local deacetylation of nucleosomal histones causing the condensation of chromatin. The repressive influence of HDACs on MEF2 can be relieved by CaMK-dependent phosphorylation of HDACs, which results in their dissociation from MEF2. The dissociation of HDACs from MEF2 is accompanied by 14-3-3-mediated nuclear export of the HDACs. We have shown that UII stimulates the activity of MEF2. […] HDAC5 was detected using a specific antibody.

p38 and ERK1/2 = assay: Western blot of p38 and ERK1/2 phosphorylation in cardiomyocytes; details: AdUIIR-infected cardiomyocytes; UII up to 60 min
Method: as §1, §2
UII-dependent activation of p38 and ERK1/2 requires CaMKK. MAP kinases play an important role in mediating intracellular signaling. They are involved in cellular processes such as hypertrophy (7-10, 53, 54). More interesting, cross talk has been reported between the CaMKs and the MAPKs in neurons (11). There are three distinct families of MAP kinases (ERKs, p38s, and JNKs)(55). […] Next, whether UII stimulation of the MAP kinases was dependent on CaMKK was determined. AdUIIR-infected cardiomyocyte cultures were treated with UII for various times up to 60 min, and the phosphorylation status of p38 and ERK MAPKs were measured by Western blot analysis using antibodies that detect the active (phosphorylated) forms of these kinases.

[3] = tested on: ANF, SkA and MEF2 reporters; assay: UII-stimulated ANF, SkA and MEF2 luciferase reporter assay in cardiomyocytes; details: AdUIIR-infected cardiomyocytes; data not shown
Description: as §1
Transient Transfection and Luciferase Assay.

CC(C)[C@H](NC(=O)[C@@H]1CSSC[C@H](NC(=O)[C@H](CC(=O)O)NC(=O)[C@@H]2CCCN2C(=O)[C@@H](NC(=O)[C@@H](N)CCC(=O)O)[C@@H](C)O)C(=O)N[C@@H](Cc2ccccc2)C(=O)N[C@@H](Cc2c[nH]c3ccccc23)C(=O)N[C@@H](CCCCN)C(=O)N[C@@H](Cc2ccc(O)cc2)C(=O)N1)C(=O)O [UII]
phosphorylation of PKD (PKD): phosphorylation of PKD by two minutes with maximum phosphorylation observed at 10 minutes | activation (phosphorylation) of CaMKI (CaMKI): increase the relative amount of active CaMKI | stimulation of hypertrophy marker gene mRNA expression (ANF, BNP, αMHC, SkA) [1]: increased expression of all four hypertrophy marker genes | association of HDAC5 with 14-3-3β [2]: increase the relative amount of 14-3-3β-bound HDAC5 | phosphorylation of p38 and ERK1/2 (p38 and ERK1/2): increased in a time-dependent manner | stimulation of ANF, SkA and MEF2 promoter-reporter activities [3]: able to increase both ANF and SkA and MEF2 promoter-reporter activities in a dose-dependent manner
